We go through 3 molecules from article PMC11481398.

Chains of the proteins cited; added tags and fusions are not shown.
UniProt Q00534: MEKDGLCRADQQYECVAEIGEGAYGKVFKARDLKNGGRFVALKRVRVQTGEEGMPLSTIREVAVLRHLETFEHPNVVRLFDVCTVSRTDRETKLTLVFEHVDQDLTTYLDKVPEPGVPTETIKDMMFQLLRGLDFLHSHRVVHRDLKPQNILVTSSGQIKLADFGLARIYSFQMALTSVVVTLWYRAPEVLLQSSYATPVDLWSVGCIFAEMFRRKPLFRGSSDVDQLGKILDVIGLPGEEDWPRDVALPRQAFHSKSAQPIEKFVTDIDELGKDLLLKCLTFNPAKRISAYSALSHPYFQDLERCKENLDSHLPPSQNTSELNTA
UniProt O14818: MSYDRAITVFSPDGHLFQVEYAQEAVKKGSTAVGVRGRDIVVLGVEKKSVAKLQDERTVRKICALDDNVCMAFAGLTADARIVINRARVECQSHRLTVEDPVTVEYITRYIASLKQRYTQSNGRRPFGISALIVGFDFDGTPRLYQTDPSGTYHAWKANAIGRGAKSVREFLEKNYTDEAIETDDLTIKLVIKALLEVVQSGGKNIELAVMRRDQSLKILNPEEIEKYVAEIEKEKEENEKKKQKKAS
UniProt Q06587: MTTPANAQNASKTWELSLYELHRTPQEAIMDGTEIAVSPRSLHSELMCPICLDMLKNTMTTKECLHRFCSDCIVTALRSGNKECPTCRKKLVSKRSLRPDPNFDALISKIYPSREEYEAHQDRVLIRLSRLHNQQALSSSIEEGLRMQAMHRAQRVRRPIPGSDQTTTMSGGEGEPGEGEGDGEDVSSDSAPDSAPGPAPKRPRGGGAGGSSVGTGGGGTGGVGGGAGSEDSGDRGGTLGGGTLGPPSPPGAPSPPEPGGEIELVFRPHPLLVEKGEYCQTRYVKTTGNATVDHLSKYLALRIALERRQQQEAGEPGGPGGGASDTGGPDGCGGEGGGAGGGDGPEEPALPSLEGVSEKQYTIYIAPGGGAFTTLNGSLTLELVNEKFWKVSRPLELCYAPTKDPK

No constants are given. Whether binding was seen depends on the method and setting. In cells and extracts the contact can be indirect. These calls come from enrichment with a bait or labelling near it, and not all partners need be listed. A no says only that the protein was not detected with the bait.

The target in the assay is Cyclin-dependent kinase 6 (human (endogenous in H69AR and H446DDP)) (UniProt Q00534). Kind of assay: affinity purification with mass spectrometry; proteomics of proteins precipitated with CDK6 antibody versus IgG from H69AR cells treated with PD.

Turning to PSMA7 (from UniProt O14818 1-248), the binding entry is recorded as “no binding”.

In the case of RING1 (from UniProt Q06587 1-406), the binding result is “binds”.

B1: UHRF2 (protein, UniProt Q96PU4 1-802)
chain: MWIQVRTIDGSKTCTIEDVSRKATIEELRERVWALFDVRPECQRLFYRGKQLENGYTLFDYDVGLNDIIQLLVRPDPDHLPGTSTQIEAKPCSNSPPKVKKAPRVGPSNQPSTSARARLIDPGFGIYKVNELVDARDVGLGAWFEAHIHSVTRASDGQSRGKTPLKNGSSCKRTNGNIKHKSKENTNKLDSVPSTSNSDCVAADEDVIYHIQYDEYPESGTLEMNVKDLRPRARTILKWNELNVGDVVMVNYNVESPGQRGFWFDAEITTLKTISRTKKELRVKIFLGGSEGTLNDCKIISVDEIFKIERPGAHPLSFADGKFLRRNDPECDLCGGDPEKKCHSCSCRVCGGKHEPNMQLLCDECNVAYHIYCLNPPLDKVPEEEYWYCPSCKTDSSEVVKAGERLKMSKKKAKMPSASTESRRDWGRGMACVGRTRECTIVPSNHYGPIPGIPVGSTWRFRVQVSEAGVHRPHVGGIHGRSNDGAYSLVLAGGFADEVDRGDEFTYTGSGGKNLAGNKRIGAPSADQTLTNMNRALALNCDAPLDDKIGAESRNWRAGKPVRVIRSFKGRKISKYAPEEGNRYDGIYKVVKYWPEISSSHGFLVWRYLLRRDDVEPAPWTSEGIERSRRLCLRLQYPAGYPSDKEGKKPKGQSKKQPSGTTKRPISDDDCPSASKVYKASDSAEAIEAFQLTPQQQHLIREDCQNQKLWDEVLSHLVEGPNFLKKLEQSFMCVCCQELVYQPVTTECFHNVCKDCLQRSFKAQVFSCPACRHDLGQNYIMIPNEILQTLLDLFFPGYSKGR
Take B1: the binding entry is reported as “binds”.
